Data source: PubChem BioAssay AID1259424 (University of Nebraska Medical Center, 2018)

Assay: 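Seek colon cancer survival genes behaving like KSR1, using a six-gene signature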 (primary screen)
System: human HCT116 colon cancer cells
Reagent: siRNA pool against human genes, 50 nM
Detection: 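Six signature mRNAs by branched-DNA multiplex assay, scaled to two housekeeping genes and non-targeting median, log2; matched to mean KSR1 knockdown profile by Pearson correlation and euclidean distance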
Direction: mean correlation with KSR1 profile: higher = expression change more like KSR1 knockdown; mean distance from KSR1 profile: higher = expression change less like KSR1 knockdown
This is a random part of about 14,000 reagents tested. 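Higher correlation or smaller distance means closer resemblance to KSR1 loss; control wells, including KSR1 knockdowns, recur on many plates.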 The numbers tell different reagents against one gene apart. A reagent listed more than once was tested more than once; the source does not tell the runs apart. Further read-outs or replicates are left out here. Not stated in the record: the time to read-out.

| target gene | reagent | mean correlation with KSR1 profile | mean distance from KSR1 profile |
| --- | --- | --- | --- |
| USP16 | 1 | -0.475 | 1.45 |
| KRT9 | 1 | 0.576 | 3.28 |
| TSSK1B | 1 | 0.37 | 1.36 |
| KRT35 | 1 | 0.394 | 0.99 |
| TSEN34 | 1 | 0.00487 | 2.95 |
| PDXK | 1 | -0.139 | 2.23 |
| PDXK | 2 | 0.636 | 1.85 |
| PDXK | 3 | 0.432 | 2.31 |
| VAV1 | 1 | 0.463 | 2.44 |
| CASP8 | 1 | -0.236 | 1.52 |
| STXBP1 | 1 | 0.453 | 1.59 |
| SSR3 | 1 | -0.158 | 1.76 |
| GTPBP4 | 1 | 0.313 | 2.55 |
| CD3E | 1 | 0.185 | 2.54 |
| CD3E | 1 | 0.792 | 1.79 |
| FOSL1 | 1 | 0.126 | 3.05 |
| DDX54 | 1 | 0.102 | 1.76 |
| SERPINB2 | 1 | -0.679 | 1.41 |
| CDKN2AIP | 1 | 0.0136 | 1.51 |
| THG1L | 1 | 0.287 | 2.01 |

Copied from the listing (3 entries):
| target gene | reagent | mean correlation with KSR1 profile | mean distance from KSR1 profile |
| --- | --- | --- | --- |
| CD3E | 1 | 0.185 | 2.54 |
| CD3E | 1 | 0.792 | 1.79 |
| FOSL1 | 1 | 0.126 | 3.05 |

The results go on.
| target gene | reagent | mean correlation with KSR1 profile | mean distance from KSR1 profile |
| --- | --- | --- | --- |
| TEX15 | 1 | -0.502 | 2.29 |
| FOXN1 | 1 | 0.226 | 2.8 |
| PRKX | 1 | -0.208 | 2.3 |
| NDOR1 | 1 | -0.0755 | 2.24 |
| POFUT3 | 1 | 0.0304 | 2.77 |
| TTC3 | 1 | -0.485 | 2.24 |
| TH | 1 | 0.821 | 1.83 |
| TMED5 | 1 | -0.214 | 3.5 |
| CPS1 | 1 | -0.872 | 2.6 |
| WHRN | 1 | -0.394 | 1.82 |
| TMC7 | 1 | 0.251 | 2.87 |
| UBE2M | 1 | -0.729 | 3.39 |
| H3C6 | 1 | -0.725 | 1.79 |
| PIAS2 | 1 | 0.589 | 2.38 |
